Here are results for 16 molecules from PubChem BioAssay AID2685 (National Center for Advancing Translational Sciences (NCATS), 2010).

The experiment can be described thus: qHTS Assay for Lipid Storage Modulators in Drosophila S3 Cells.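 As to cell number change: cells counted by Cell Tracker Red CMTPX staining in the red channel.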 As to conditions: BODIPY lipid droplet fluorescence, 18-24 h; for cell number change: measured here: cell count max response, cells fed with added oleic acid. The essentials: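 Laser-scanning cytometry quantifies lipid droplet accumulation (500–530 nm total intensity; droplet/cell object ratio) in oleic acid-fed (400 uM added) Drosophila S3 cells treated with a concentration series. 20 uM Triacsin C defined 100% inhibition.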
Background: In qHTS, concentration-response curves come from the screen itself.

Setting [1] is: measured here: lipid fluorescence (Fed channel) AC50, cells fed with added oleic acid.
Where [2] appears, read: measured here: cell number channel AC50, cells fed with added oleic acid.

This is one part of the list. These are further read-outs of the screen, such as a control signal, another cell line or another target. No call is given for them. Most of these compounds were active or inconclusive in the main read-out, so they are no random draw. Potencies come from curve fits of mixed quality, noted in brackets.

In general, AC50 refers to the midpoint of the concentration-response curve, whichever way the signal moves. High values mean weaker potency, low ones greater potency. On to `CCN(CC)C(=O)C(=O)c1cccn1-c1ccc(C#N)cc1`, for which the cell number change was -3.75%. In addition, the AC50 under setting [1] was 4.11 µM [falling, single point]. Take `CSC(=NC#N)N1CCN(c2c(C)cccc2C)CC1`: the cell number change is 32.4%. Under setting [2], the AC50 is 29.1 µM [rising, single point]. In addition, the concentration at half-maximal activity (AC50) under setting [1] is 25.9 µM [rising, single point]. Consider `CCCN(C(=O)CSCc1ccc(Cl)cc1)c1c(N)n(Cc2ccccc2)c(=O)[nH]c1=O`, for which the cell number change amounted to 33.7%. Also, under setting [2], the AC50 is 29.1 µM [rising, single point]. As for `Cc1[nH]c2ccccc2c1-c1nc(-c2ccc(Cl)cc2)nnc1-c1ccccc1`, the cell number change was found to be 16.9%. Also, under setting [2], the AC50 is 0.082 µM [rising, full curve, poor fit]. Besides, the AC50 under setting [1] is 0.116 µM [rising, full curve, poor fit].

Regarding `O=C(O)c1nn(-c2ccccc2)ccc1=O`, the cell number change turned out to be 17.5%. As for `CCCCOC(=O)c1ccc(NC(=O)C(=O)NCc2ccncc2)cc1`, the cell number change was -17.8%. The AC50 under setting [1] is 23.1 µM [falling, single point]. Consider `COc1ccc(S(=O)(=O)N2CCN(Cc3ccccc3)CC2)cc1`, for which the cell number change stood at 10.5%. The AC50 under setting [1] is 0.411 µM [rising, partial curve, poor fit].

`COc1ccccc1/C=N/NC(=O)c1nnn(-c2nonc2N)c1CN(C)c1ccccc1`: the cell number change was -1.91%. For the same molecule, the AC50 under setting [2] was 3.26 µM [falling, single point]. Besides, the AC50 under setting [1] is 23.1 µM [falling, single point]. With `CC1CCCN(Cc2nc3c(c(=O)n(C)c(=O)n3C)n2CCCc2ccccc2)C1` (stereo unspecified), under setting [2], the AC50 is 0.731 µM [rising, partial curve].

On to `CCCCC(=O)Nc1nc(C)c(-c2csc(Nc3cc(Cl)ccc3OC)n2)s1`, for which the AC50 under setting [2] is 3.66 µM [falling, partial curve, poor fit]. In the case of `CCc1ccc(NC(=O)Cn2c(=O)c3cccn3c3ccccc32)cc1`, the AC50 under setting [1] is 6.51 µM [falling, single point]. For `[N-]=[N+]=CC(=O)C(c1ccccc1)(c1ccccc1)c1ccccc1`, the cell number change worked out at 23.3%. Take `O=C(CCCc1ccccc1)NCCCc1ccccc1`: the cell number change is -10.3%. For the same molecule, under setting [1], the AC50 was 0.146 µM [falling, full curve, poor fit]. Take `Cc1ccc(CCN2CC(C(=O)NCCCOC(C)C)CC2=O)cc1` (stereo unspecified): the cell number change came to 40.2%. The AC50 under setting [2] is 29.1 µM [rising, single point]. The AC50 under setting [1] was 6.51 µM [rising, partial curve]. On to `O=C(CN1C(=O)CSc2ccc(S(=O)(=O)N3CCCCC3)cc21)NCc1ccccc1`, for which the cell number change was determined as 30.7%. For the same molecule, under setting [1], the AC50 is 29.1 µM [rising, single point]. Take `CC(=O)Nc1ccc(C2=CC(=O)C[C@H](c3ccc4c(c3)OCO4)C2)cc1`: the cell number change is -26.8%. The AC50 under setting [1] is 0.146 µM [rising, full curve, poor fit].
